Values quoted from earlier work, collected in article PMC2673089 (Journal of pharmaceutical sciences, 2008).

Target: NET
Conditions: read-out: NET Ki; mean ± SEM; cited from earlier work

For `CN1[C@@H]2CC[C@H]1C[C@@H](OC(c1ccccc1)c1ccccc1)C2` [BZT, benztropine, reference compound], the Ki is given as 1390 ± 134 nM.
